# PubChem BioAssay AID2685 (National Center for Advancing Translational Sciences (NCATS), 2010)
# This is one part of the list. These are further read-outs of the screen, such as a control signal, another cell line or another target. No call is given for them. Compounds called inactive in the main read-out are mostly missing here. The note in brackets gives the kind of curve behind each potency; many fits are weak.
# Experiment: qHTS Assay for Lipid Storage Modulators in Drosophila S3 Cells;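 on cell number change: cells counted by Cell Tracker Red CMTPX staining in the red channel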
# Settings: BODIPY lipid droplet fluorescence, 18-24 h; for cell number change: measured here: cell count max response, cells fed with added oleic acid
# Method in brief: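 Drosophila S3 cells loaded with oleic acid (400 uM, as added) and compounds at several concentrations; lipid droplets imaged by 488-nm laser-scanning cytometry, 500–530 nm intensity and object ratio to cell channel. Percent activity normalized to 20 uM Triacsin C.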
# [1] = measured here: lipid fluorescence (Fed channel) AC50, cells fed with added oleic acid
# [2] = measured here: cell number channel AC50, cells fed with added oleic acid
SMILES,AC50 [1],cell number change,AC50 [2]
Cc1ccc(C(=O)NC(C(=O)OCc2cn3cc(Cl)ccc3n2)C(C)C)cc1 (centres undefined),"7.31 µM [falling, partial curve, poor fit]",,
S=C(NCCN1CCOCC1)NC1CCCCC1,"29.1 µM [falling, single point]",-0.0098%,
O=C(COC(=O)c1ccc2ncsc2c1)Nc1cccc(Cl)c1,"5.8 µM [rising, partial curve]",31.7%,"13 µM [rising, single point]"
Cc1ccc(CSc2nnc3nc(C)cc(C)n23)cc1,,54%,"23.1 µM [rising, partial curve]"
O=C(C#Cc1ccccc1)c1cccc([N+](=O)[O-])c1,"29.1 µM [falling, single point]",-36.2%,"8.2 µM [falling, partial curve]"
O=C(COC(=O)c1ccc2c(c1)OCCO2)Nc1ccc(F)cc1,,67.5%,"13 µM [rising, partial curve]"
CCOC(=O)c1c(NC(=O)c2ccc(C)cc2)sc2c1CC(C)(C)OC2,"0.58 µM [rising, single point]",48.6%,"0.731 µM [rising, full curve, poor fit]"
CCCNC(=O)Nc1cc(OC)c(OC)cc1Cc1nccc2cc(OC)c(OC)cc12,"3.26 µM [rising, single point]",,
CCN(CC)c1ccc(-c2nc3cnccc3n2C)cc1,"3.26 µM [rising, partial curve, poor fit]",-8.43%,
Cc1ccc(Oc2nnc(-c3cccs3)c3ccccc23)cc1C,"0.651 µM [rising, partial curve, poor fit]",-13.9%,
Cn1cccc1/C=N/NC(=O)CNc1ccc2ccccc2c1,"2.06 µM [rising, partial curve, poor fit]",15.6%,"2.31 µM [rising, single point]"
COc1ccccc1NC(=O)CN1CCN(CC(=O)Nc2ccc(S(N)(=O)=O)cc2)CC1,,,"6.51 µM [rising, single point]"
CSc1nc(NCCOCCO)c2sc3nc(-c4ccco4)c4c(c3c2n1)CCC4,"6.51 µM [rising, single point]",20.7%,"1.64 µM [rising, full curve, poor fit]"
Cc1nnc2ccc(-c3cccc(NC(=O)c4ccc(Cl)nc4)c3)nn12,"1.84 µM [falling, full curve, poor fit]",-23.7%,
CCn1c(COc2ccc3c(c2)OCO3)nnc1SCC(=O)c1ccc(Cl)cc1,"0.291 µM [rising, partial curve, poor fit]",20.5%,
CCCN(CC(=O)Nc1ccccc1C)CC(=O)Nc1ccc(Br)cc1F,"29.1 µM [rising, single point]",,
OC(CNc1nc(C(F)(F)F)nc2ccccc12)c1ccccc1 (centres undefined),,-11.5%,
CC(C)c1ccc(S(=O)(=O)/N=C2\C=C(NS(=O)(=O)c3ccccc3)C(=O)c3ccccc32)cc1,"35.5 µM [rising, single point]",-19.7%,
Cc1ccc(S(=O)(=O)CC(=O)Nc2nc3ccccc3s2)cc1,"29.1 µM [rising, single point]",1.35%,

# An excerpt of these results, with bars between the fields.
SMILES | AC50 [1] | cell number change | AC50 [2]
Cc1ccc(CSc2nnc3nc(C)cc(C)n23)cc1 |  | 54% | 23.1 µM [rising, partial curve]
CCOC(=O)c1c(NC(=O)c2ccc(C)cc2)sc2c1CC(C)(C)OC2 | 0.58 µM [rising, single point] | 48.6% | 0.731 µM [rising, full curve, poor fit]
Cn1cccc1/C=N/NC(=O)CNc1ccc2ccccc2c1 | 2.06 µM [rising, partial curve, poor fit] | 15.6% | 2.31 µM [rising, single point]

# (list continues)

SMILES,AC50 [1],cell number change,AC50 [2]
O=C(N1CCN(c2ccccc2F)CC1)C12CC3CC(CC(C3)C1)C2,,,"6.51 µM [rising, single point]"
CCc1ccc(N(CC(=O)NCC2CCCO2)C(=O)CCC(=O)Nc2nccs2)cc1 (centres undefined),,-1.28%,
CCOC(=O)C(CC(=O)O)=C(c1ccccc1)c1ccccc1,"6.51 µM [falling, single point]",27%,
Cn1c(=O)c(C(=O)Nc2cnccn2)c(O)c2ccccc21,,0.619%,
COc1cccc(Nc2nc3ccccc3n3nnnc23)c1,"1.84 µM [rising, full curve]",95.8%,"1.84 µM [rising, full curve]"
CCCN(CC(=O)Nc1ccccc1OC)C(=O)c1ccc(=O)[nH]c1,,-13.9%,
Cc1nc(-c2ccccc2)sc1C1(C)CC(c2c(Cl)cccc2Cl)=NO1 (centres undefined),,-6.06%,
Cc1noc(C)c1COC(=O)Cc1ccc(Br)cc1,"0.58 µM [falling, single point]",-41.4%,"20.6 µM [falling, single point]"
CC(C)(C)c1ccc(OCCOc2ccc(C(C)(C)C)cc2NC=O)c(NC=O)c1,"29.1 µM [falling, single point]",-61.3%,"18.4 µM [falling, single point]"
CC(=O)Nc1ccc(SCC(=O)OCC(=O)NC(=O)NCc2ccco2)cc1,"0.731 µM [falling, full curve, poor fit]",-16.6%,"0.366 µM [falling, full curve, poor fit]"
O=C(CSc1nnc(-c2cccc(S(=O)(=O)N3CCOCC3)c2)n1C1CCCCCC1)NCc1ccccc1,,-18.6%,
O/N=C(\c1ccc(Cl)cc1Cl)c1ncc(C(F)(F)F)cc1Cl,"5.8 µM [falling, full curve]",-31.4%,"16.4 µM [falling, single point]"
CN1C(=S)N(c2ccccc2)C(=O)/C1=C/c1ccco1,"23.1 µM [falling, single point]",-64.6%,"23.1 µM [falling, single point]"
O=C(NC(Cc1c[nH]c2ccccc12)C(=O)NCc1ccc(F)cc1)OCc1ccccc1 (centres undefined),"0.517 µM [rising, partial curve, poor fit]",,"3.26 µM [rising, partial curve]"
CN1C(C(=O)NCc2ccc(OC(F)(F)F)cc2)CC2Cn3c(nc4ccccc43)C21 (centres undefined),"10.3 µM [rising, partial curve]",13.5%,
COc1cccc(-c2nc3ccccc3s2)c1,"29.1 µM [rising, single point]",-22.9%,
CCCCOC(=O)c1ccc(NC(=O)C(=O)NCCN(CC)CC)cc1,,21.5%,
CSc1nnc(CNS(=O)(=O)c2ccc(Cl)cc2)n1C,"6.51 µM [rising, single point]",141%,"18.4 µM [rising, partial curve]"
